This passage reports binding results from article PMC11006229, “Structures and dynamics of Rpd3S complex bound to nucleosome” (Science Advances, 2024).

In the experiment the target is T1, Rco1 (S. cerevisiae, UniProt Q04779 1-684).
T1 construct: Rco1, S. cerevisiae, tagged at its chromosomal locus; NTD1/2, PHD1/2, NID (residues 311 to 332), EID (residues 333 to 376), CTD; Two copies (Rco1 and Rco1′) stand in the Rpd3S complex; source: endogenous, S. cerevisiae (Rco1-3x-Flag strain), purified with the Rpd3S complex (ANTI-FLAG M2 resin, glycerol gradient); not shown: 3x-Flag, C-terminal, kept
T1 sequence (looked up): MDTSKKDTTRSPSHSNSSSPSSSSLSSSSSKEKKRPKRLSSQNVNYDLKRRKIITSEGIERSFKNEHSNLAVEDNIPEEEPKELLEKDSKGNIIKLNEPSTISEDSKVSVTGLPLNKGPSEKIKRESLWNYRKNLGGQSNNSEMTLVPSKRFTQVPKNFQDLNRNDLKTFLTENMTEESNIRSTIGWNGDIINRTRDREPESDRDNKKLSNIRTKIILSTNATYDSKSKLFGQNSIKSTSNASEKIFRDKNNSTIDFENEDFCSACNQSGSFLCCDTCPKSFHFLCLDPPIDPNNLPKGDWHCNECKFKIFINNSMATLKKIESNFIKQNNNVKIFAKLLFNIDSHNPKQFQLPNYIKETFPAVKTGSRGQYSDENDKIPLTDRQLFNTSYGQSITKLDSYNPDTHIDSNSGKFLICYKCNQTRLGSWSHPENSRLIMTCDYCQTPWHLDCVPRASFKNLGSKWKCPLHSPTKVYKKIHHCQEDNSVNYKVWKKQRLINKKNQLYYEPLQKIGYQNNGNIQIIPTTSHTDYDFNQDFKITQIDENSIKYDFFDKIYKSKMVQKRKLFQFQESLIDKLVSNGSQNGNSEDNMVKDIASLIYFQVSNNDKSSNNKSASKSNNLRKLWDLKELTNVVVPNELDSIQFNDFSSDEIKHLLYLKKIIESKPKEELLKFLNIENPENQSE
The experiment can be described thus: affinity purification with mass spectrometry; Rco1-3x-Flag captured from S. cerevisiae lysate (350 mM NaCl) on ANTI-FLAG M2 resin, eluted with FLAG peptide; components separated by SDS-PAGE and confirmed by mass spectrometry.

No constants are given. Whether binding was seen depends on the method and setting. Binding seen in cells or lysates may run through a third protein. A yes stands for co-enrichment or nearness to the bait. Other partners may have been found.

B1: Ume1 (protein, UniProt Q03010 1-460)
chain: MSTLDIAEDNKIKNEEFKIWKKSIPSLYQHISSLKPIFGSGVDESPSTLRSIVFTNDSSCNKSKGVLSVPLLYSQGSEIFEVDCIVPLGLHYKKPESISEPLVQPDYTMESQKVEQTVLIPKWEFKGETIAKMIYVDNSEINVKVIALSTNGSLAWFREGVKSPVYTMMEPSTSLSSASSGNQNKPCVDFAISNDSKTLTVTKEKHLDNENATIKLIDNSGKIGEVLRTIPVPGIKNIQEIKFLNNQIFATCSDDGIIRFWGNEIGKKPLWILNDSLDGKTTCFAASPFVDTLFMTGTSGGALKVWDIRAVIALGDADAELNINQGHNKVNELFKVHHFYSEQVSKIEFSSISPMEVVTIGGLGNVYHWNFEPVFAIYNEIHEDFQGIISDELEAESMAFYHTEGCRREIGENNKVNTVAYHKYIEDLVATVDSDGLLTVYKPFTGKVLDGSREVGAAKS
With B1, the binding result is reported as “binds”.
